Measured values published in article doi:10.1101/2022.03.18.484840.
No constants are given. Whether binding was seen depends on the method and setting. In cells and extracts the contact can be indirect. Some binding calls cover weakened binding; strength is not graded here. Tags and fused reporters may be left off the sequences shown.

Chains of the proteins cited; added tags and fusions are not shown.
UniProt Q9UBN7: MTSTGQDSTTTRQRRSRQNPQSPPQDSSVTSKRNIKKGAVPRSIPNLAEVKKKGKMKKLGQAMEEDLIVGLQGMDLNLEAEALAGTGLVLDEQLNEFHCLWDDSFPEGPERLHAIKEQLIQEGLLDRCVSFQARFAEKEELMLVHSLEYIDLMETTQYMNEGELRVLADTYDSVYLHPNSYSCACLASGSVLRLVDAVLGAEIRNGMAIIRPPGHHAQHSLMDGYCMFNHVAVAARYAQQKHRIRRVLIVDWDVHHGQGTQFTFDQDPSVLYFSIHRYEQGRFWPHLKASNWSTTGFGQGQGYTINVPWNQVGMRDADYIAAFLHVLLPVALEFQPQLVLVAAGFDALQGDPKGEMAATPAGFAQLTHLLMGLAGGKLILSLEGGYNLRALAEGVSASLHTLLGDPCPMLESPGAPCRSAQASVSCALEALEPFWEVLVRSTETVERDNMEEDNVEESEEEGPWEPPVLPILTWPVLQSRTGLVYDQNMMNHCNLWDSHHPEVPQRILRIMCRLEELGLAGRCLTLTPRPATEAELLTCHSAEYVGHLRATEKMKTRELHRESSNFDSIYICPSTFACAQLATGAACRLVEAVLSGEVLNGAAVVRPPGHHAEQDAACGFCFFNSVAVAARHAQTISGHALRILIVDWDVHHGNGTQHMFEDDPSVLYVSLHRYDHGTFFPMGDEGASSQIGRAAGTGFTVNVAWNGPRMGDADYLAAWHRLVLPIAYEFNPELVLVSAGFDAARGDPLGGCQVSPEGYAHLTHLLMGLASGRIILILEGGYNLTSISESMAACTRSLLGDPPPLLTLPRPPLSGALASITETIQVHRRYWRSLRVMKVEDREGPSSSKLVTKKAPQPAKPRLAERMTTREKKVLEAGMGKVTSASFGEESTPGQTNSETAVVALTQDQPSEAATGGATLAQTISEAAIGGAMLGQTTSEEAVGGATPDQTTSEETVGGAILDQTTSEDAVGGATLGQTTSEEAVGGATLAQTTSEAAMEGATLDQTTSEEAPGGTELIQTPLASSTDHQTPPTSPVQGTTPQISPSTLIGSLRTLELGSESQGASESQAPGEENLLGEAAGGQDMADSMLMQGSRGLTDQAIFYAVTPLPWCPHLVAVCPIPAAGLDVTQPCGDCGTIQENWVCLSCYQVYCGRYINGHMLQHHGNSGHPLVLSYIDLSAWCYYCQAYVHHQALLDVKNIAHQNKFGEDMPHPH

Biological target: T1, FLAG-SAE2 expressed in U2OS cells (human) (UniProt Q9UBT2)
T1 sequence: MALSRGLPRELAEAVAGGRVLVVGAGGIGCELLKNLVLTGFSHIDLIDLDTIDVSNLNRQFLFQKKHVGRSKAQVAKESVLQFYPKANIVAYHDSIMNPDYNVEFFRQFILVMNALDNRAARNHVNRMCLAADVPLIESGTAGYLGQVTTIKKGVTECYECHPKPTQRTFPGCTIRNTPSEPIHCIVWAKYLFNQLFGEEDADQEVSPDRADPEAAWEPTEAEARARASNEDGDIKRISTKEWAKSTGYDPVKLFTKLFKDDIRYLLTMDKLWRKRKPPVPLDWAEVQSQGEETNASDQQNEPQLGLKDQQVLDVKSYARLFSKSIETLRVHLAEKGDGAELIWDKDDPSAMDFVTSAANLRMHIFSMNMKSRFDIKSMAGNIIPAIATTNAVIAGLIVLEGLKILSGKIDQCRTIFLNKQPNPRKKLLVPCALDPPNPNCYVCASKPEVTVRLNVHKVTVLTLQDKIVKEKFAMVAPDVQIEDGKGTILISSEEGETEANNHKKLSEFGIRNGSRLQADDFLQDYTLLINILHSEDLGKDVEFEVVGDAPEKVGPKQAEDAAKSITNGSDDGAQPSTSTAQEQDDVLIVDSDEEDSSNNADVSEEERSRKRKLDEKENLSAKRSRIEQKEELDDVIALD
Assay: co-IP

HDAC6, endogenous (from UniProt Q9UBN7 1-1215) (enzyme)
binding: binds
